Paper PMC10345115
Results are given in words; binding and its absence hold for the method and conditions named. In cells and extracts the contact can be indirect. Some entries that bind do so weakly or less than the wild type. Tags and fused reporters may be left off the sequences shown.

By UniProt entry, the sequences of proteins in these tests, tags left out.
UniProt Q92731: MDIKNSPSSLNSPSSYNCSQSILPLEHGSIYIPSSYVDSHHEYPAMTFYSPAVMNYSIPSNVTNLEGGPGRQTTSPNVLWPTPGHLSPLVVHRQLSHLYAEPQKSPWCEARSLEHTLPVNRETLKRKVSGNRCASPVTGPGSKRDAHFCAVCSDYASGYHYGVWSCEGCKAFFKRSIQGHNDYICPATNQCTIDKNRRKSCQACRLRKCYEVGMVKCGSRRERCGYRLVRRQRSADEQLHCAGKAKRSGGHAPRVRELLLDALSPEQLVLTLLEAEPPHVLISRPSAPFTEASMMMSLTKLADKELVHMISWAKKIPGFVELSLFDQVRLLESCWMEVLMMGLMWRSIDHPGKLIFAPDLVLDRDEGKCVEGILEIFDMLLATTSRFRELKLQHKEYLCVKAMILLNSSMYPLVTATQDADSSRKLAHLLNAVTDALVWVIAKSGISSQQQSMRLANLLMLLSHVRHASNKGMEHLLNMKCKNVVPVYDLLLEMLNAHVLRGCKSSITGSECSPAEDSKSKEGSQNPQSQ

B1: Flag-WFDC3 (protein, UniProt Q8IUB2 25-231)
chain: GEHAKEGECPPHKNPCKELCQGDELCPAEQKCCTTGCGRICRDIPKGRKRDCPRVIRKQSCLKRCITDETCPGVKKCCTLGCNKSCVVPISKQKLAEFGGECPADPLPCEELCDGDASCPQGHKCCSTGCGRTCLGDIEGGRGGDCPKVLVGLCIVGCVMDENCQAGEKCCKSGCGRFCVPPVLPPKLTMNPNWTVRSDSELEIPVP
B2: GST-WFDC3 (protein, UniProt Q8IUB2 25-231)
chain: B1 chain

Legend:
[1] = target: Myc-ERβ (UniProt Q92731); experiment: co-IP; 500 µg total protein from transfected cells; immunoprecipitation with 1 µg c-Myc antibody or Flag antibody at 4 °C overnight, Protein A Sepharose beads; western blot
[2] = target: His-tagged ERβ (UniProt Q92731); experiment: pull-down; in vitro His-tag pull-down with bacterially expressed GST/His-fused proteins; His-ERβ as bait

Binder | binding [1] | binding [2]
B1 | binds | 
B2 |  | binds
